Results published in the supplement of paper PMC10849652.
The list shows a part of the results.

Protein sequences, listed by entry. Tags and fused reporters are not part of them. Lines headed by an entry give the natural chain unless they say otherwise; changes in a name come on top.
UniProt Q96EE3: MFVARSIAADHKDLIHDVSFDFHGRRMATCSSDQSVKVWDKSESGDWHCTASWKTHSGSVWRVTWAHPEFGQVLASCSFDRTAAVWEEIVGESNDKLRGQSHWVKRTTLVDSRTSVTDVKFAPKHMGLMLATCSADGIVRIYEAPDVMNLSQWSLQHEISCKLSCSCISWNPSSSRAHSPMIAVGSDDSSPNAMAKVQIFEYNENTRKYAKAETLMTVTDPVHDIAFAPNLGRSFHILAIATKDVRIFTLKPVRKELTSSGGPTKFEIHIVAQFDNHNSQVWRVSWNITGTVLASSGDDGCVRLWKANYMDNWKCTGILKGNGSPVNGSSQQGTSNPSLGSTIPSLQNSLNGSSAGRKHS
UniProt O95104: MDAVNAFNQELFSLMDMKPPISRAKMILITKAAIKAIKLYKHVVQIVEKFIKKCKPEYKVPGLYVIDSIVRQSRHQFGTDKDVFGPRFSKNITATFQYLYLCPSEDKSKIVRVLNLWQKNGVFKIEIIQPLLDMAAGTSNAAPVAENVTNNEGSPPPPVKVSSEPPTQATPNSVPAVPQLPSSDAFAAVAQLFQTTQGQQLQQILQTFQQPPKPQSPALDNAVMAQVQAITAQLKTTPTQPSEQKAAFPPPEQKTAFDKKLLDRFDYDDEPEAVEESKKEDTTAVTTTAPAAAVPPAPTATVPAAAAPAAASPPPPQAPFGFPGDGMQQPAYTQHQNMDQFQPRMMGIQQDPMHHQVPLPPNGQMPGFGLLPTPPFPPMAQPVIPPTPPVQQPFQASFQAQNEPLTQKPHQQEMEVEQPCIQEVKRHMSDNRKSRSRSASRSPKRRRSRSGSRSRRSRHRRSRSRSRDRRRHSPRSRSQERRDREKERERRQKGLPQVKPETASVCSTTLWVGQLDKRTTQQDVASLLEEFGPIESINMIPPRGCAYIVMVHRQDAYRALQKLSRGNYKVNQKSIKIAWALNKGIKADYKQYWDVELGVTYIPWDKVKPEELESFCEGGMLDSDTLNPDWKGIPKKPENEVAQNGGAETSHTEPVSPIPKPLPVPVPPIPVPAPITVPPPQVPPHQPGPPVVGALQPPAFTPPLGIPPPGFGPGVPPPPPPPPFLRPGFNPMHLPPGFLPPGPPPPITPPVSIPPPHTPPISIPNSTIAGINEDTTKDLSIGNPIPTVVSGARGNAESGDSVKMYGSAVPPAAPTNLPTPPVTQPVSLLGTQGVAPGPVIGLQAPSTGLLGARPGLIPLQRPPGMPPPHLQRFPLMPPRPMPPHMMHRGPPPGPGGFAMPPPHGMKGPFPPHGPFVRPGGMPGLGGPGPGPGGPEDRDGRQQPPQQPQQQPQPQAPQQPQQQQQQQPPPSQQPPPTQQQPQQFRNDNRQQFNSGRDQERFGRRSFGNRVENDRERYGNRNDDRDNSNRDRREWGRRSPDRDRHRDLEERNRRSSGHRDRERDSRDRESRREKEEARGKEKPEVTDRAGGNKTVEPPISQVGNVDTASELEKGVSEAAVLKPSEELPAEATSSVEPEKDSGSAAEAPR
UniProt Q15436: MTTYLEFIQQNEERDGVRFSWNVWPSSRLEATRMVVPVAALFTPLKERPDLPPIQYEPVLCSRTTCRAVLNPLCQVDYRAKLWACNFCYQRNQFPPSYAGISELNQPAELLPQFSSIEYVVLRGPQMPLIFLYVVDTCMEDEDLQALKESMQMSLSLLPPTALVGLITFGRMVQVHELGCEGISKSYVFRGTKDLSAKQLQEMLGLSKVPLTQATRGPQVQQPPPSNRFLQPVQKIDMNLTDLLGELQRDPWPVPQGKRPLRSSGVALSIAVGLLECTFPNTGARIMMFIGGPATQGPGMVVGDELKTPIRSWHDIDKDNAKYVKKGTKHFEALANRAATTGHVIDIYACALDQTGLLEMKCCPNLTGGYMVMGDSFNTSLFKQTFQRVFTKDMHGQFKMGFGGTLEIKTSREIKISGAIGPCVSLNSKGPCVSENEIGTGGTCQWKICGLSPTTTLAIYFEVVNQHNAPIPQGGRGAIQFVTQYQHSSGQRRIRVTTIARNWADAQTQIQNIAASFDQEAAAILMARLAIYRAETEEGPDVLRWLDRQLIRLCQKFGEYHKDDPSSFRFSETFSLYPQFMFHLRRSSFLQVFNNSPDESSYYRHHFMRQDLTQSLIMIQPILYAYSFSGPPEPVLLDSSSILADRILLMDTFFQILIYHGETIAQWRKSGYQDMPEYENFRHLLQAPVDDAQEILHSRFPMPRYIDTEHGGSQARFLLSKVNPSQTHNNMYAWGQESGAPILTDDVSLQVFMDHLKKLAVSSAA
UniProt Q13228: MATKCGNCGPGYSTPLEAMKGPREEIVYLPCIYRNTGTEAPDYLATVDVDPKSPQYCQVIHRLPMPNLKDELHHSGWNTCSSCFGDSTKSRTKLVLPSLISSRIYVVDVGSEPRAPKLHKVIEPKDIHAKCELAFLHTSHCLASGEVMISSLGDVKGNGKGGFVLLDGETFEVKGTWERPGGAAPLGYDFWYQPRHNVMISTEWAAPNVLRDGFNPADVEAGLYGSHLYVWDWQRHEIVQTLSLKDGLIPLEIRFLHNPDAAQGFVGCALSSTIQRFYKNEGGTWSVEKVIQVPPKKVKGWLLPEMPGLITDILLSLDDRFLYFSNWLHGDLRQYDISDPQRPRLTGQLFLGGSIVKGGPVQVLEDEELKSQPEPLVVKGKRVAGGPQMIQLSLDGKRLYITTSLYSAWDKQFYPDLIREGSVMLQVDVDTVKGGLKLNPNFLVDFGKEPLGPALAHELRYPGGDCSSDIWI
UniProt Q96ER3: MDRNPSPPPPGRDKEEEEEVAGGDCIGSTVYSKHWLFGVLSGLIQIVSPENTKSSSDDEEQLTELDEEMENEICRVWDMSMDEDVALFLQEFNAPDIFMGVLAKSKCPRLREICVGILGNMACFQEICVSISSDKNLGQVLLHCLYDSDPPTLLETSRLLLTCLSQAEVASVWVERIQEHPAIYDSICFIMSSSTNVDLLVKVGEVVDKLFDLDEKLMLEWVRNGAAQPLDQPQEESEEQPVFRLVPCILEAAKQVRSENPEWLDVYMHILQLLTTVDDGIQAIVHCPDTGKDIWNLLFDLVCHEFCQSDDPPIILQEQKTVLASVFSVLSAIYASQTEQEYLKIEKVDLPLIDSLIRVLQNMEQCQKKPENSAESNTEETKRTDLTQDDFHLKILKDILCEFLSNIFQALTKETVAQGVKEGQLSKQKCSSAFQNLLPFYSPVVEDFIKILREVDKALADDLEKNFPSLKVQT
UniProt Q9BQE4, whole entry, looked up: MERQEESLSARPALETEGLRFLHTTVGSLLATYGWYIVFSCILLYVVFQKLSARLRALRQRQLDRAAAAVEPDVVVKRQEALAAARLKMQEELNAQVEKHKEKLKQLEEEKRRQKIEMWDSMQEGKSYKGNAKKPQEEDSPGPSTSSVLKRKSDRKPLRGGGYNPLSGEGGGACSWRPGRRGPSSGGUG
UniProt Q6UVJ0: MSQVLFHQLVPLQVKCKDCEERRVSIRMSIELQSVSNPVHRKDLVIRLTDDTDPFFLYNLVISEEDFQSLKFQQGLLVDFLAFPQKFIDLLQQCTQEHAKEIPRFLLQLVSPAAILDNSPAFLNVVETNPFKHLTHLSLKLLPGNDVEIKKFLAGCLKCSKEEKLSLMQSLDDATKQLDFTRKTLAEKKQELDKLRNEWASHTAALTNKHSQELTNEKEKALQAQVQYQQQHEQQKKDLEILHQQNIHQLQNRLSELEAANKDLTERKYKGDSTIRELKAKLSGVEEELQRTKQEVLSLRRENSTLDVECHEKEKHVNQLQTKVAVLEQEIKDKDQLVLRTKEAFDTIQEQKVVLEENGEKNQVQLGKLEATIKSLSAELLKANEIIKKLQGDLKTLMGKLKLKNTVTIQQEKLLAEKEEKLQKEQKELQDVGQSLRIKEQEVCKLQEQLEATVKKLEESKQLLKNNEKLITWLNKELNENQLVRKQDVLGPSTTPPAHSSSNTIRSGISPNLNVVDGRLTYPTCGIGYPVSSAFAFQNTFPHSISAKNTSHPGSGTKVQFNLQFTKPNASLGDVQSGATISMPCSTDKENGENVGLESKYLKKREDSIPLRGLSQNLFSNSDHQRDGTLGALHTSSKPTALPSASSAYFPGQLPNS
UniProt Q9NTJ5: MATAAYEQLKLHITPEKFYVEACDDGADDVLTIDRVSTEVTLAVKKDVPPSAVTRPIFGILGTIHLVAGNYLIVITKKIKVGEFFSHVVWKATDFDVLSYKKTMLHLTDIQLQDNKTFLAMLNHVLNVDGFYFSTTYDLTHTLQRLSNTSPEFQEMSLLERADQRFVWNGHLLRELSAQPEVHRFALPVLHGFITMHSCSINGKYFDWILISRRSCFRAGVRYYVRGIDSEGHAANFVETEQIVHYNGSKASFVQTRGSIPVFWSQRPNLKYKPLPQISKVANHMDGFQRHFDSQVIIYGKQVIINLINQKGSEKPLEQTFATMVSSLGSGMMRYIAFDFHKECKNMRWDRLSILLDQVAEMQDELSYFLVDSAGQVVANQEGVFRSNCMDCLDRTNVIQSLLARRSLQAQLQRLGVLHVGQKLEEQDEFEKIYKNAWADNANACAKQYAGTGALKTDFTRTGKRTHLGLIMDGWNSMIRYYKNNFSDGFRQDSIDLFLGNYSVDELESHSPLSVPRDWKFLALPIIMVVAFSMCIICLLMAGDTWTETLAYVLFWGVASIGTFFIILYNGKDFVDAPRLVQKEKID
UniProt O60613, whole entry, looked up: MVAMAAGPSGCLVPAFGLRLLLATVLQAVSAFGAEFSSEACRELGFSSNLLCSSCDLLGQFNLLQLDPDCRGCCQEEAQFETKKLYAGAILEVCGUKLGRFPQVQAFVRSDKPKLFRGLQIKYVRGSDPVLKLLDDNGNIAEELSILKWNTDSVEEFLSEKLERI
UniProt Q9NVA2: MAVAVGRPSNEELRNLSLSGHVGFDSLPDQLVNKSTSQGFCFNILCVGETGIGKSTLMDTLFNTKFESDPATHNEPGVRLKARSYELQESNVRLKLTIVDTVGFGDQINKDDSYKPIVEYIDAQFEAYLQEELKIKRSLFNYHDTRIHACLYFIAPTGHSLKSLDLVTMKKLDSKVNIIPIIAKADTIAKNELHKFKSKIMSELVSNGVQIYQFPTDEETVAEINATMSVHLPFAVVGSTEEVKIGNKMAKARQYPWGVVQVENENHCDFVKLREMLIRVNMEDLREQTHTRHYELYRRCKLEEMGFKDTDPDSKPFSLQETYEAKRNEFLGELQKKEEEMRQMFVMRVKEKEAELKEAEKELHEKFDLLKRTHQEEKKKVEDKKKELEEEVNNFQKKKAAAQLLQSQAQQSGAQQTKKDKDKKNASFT
UniProt Q99643: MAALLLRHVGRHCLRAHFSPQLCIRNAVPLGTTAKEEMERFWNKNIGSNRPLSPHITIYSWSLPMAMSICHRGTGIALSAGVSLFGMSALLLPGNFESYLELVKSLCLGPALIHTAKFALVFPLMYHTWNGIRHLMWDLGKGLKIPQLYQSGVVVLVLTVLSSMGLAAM
UniProt Q9Y512: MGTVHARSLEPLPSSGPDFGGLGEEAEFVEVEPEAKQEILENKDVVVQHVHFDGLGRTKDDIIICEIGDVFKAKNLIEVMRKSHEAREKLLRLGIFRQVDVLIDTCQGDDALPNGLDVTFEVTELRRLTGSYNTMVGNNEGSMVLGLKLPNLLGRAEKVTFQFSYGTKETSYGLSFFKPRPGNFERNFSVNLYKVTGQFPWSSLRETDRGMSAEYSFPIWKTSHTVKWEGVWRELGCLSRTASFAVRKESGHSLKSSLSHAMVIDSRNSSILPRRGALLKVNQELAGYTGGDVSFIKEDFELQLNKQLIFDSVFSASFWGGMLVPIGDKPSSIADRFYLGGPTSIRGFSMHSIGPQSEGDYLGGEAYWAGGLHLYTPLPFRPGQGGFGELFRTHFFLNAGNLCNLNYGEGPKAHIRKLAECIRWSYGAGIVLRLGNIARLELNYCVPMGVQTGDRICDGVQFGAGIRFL
UniProt Q9UHD8: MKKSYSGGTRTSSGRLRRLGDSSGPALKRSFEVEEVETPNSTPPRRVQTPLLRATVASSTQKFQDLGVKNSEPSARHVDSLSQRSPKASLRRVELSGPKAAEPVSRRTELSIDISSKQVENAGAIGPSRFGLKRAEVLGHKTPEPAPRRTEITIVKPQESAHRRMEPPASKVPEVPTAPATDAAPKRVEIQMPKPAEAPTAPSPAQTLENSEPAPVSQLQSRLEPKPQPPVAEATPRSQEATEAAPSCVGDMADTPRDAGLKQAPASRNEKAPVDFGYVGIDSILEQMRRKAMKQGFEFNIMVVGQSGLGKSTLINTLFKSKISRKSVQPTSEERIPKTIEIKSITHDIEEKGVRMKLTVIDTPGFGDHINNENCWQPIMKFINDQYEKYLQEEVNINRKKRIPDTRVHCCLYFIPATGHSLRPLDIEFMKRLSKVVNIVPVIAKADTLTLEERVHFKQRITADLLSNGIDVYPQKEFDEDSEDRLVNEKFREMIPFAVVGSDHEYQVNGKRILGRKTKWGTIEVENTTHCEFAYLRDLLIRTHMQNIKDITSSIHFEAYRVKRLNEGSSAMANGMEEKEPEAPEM

Experiments:
Assay in all cases: log2 fold change, soluble protein after heating vs DMSO (PISA); higher = thermal stabilisation; K562 lysate, 10 uM; active = over 0.2 and 3.5 SD of the protein, either way, in both replicates (recomputed)
[1] = compound: CN1CC[C@H](c2c(O)cc(O)c3c(=O)cc(-c4ccccc4Cl)oc23)[C@H](O)C1 [alvocidib]
Procedure, shortened: (§1)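 Following dounce homogenisation of K562 pellets in PBS pH 7.4 with 1 mM MgCl2, crude extract at 1 mg/mL protein was incubated for 30 min with 10 μM compound. Aliquots were then heated for 3 min over 48°C-58°C and pooled, NP-40 was added to 0.5% at 4°C, and soluble protein was recovered as the supernatant at 21,000xg for 90 min. Channel-sum-equalised TMTpro 16plex LC-MS/MS quantified this protein. Each value, from duplicates, is a log-two fold change in thermal stability relative to solvent controls.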

[2] = compound: CN1CCc2c(c3ccccc3n2Cc2ccc(C(=O)NO)cc2)C1 [Tubastatin A]
Procedure, shortened: as §1

[3] = compound: CNC(=O)C1=CC=CC=C1NC2=NC(=NC=C2Cl)NC3=C(C=C(C=C3)N4CCOCC4)OC
Procedure, shortened: as §1

[4] = compound: CNC(=O)c1ccc(Nc2ncc(C(F)(F)F)c(NCc3nccnc3N(C)S(C)(=O)=O)n2)cc1 [defactinib]
Procedure, shortened: as §1

[5] = compound: CNc1nc(-c2ccc3c(N)n[nH]c3c2)cc(N2C[C@@H](C(=O)NC3CCCCC3)CC[C@H]2C)n1
Procedure, shortened: as §1

[6] = compound: COC(=O)N[C@@H](C)CNc1nccc(-c2cn(C(C)C)nc2-c2cc(Cl)cc(NS(C)(=O)=O)c2F)n1 [encorafenib]
Procedure, shortened: as §1

[7] = compound: COC(=O)[C@H](CCSC)NC(=O)C1=C(C=C(C=C1)NC[C@H](CS)N)C2=CC=CC=C2
Procedure, shortened: as §1

[8] = compound: COc1cc(Nc2ncc3c(n2)-c2ccc(Cl)cc2C(c2c(F)cccc2OC)=NC3)ccc1C(=O)O [alisertib]
Procedure, shortened: as §1

[9] = compound: COc1cc2nc(-c3cc(F)ccc3O)nc(N[C@@H]3CNC[C@H]3C(C)(C)O)c2cc1OC
Procedure, shortened: as §1

[10] = compound: COc1cc2ncnc(Nc3ccc(F)c(Cl)c3)c2cc1OCCCN1CCOCC1 [gefitinib]
Procedure, shortened: as §1

Measured: log2 fold change

SCYL2 (UniProt Q6P3W7)
inactive: [1] -0.061 | [2] 0.045 | [3] 0.006 | [4] -0.016 | [5] -0.003 | [6] 0.073 | [7] 0.028 | [8] 0.025 | [9] 0.003 | [10] 0.016

SEH1L isoform 1 (UniProt Q96EE3)
inactive: [1] -0.042 | [2] 0 | [3] 0 | [4] -0.028 | [5] -0.014 | [6] -0.007 | [7] -0.077 | [8] 0.001 | [9] 0.01 | [10] -0.004

SATB2 (UniProt Q9UPW6)
inactive: [1] 0.047 | [2] -0.096 | [3] -0.019 | [4] -0.022 | [5] -0.031 | [6] 0.053 | [7] -0.022 | [8] 0.024 | [9] -0.008 | [10] 0.01

SCML2 (UniProt Q9UQR0)
inactive: [1] 0.006 | [2] -0.204 | [3] 0.031 | [4] -0.03 | [5] -0.035 | [6] 0.01 | [7] 0.18 | [8] 0.025 | [9] -0.016 | [10] -0.053

SCAMP3 isoform 2 (UniProt O14828)
inactive: [1] -0.151 | [2] -0.117 | [3] -0.083 | [4] 0.006 | [5] 0.136 | [6] -0.017 | [7] 0.041 | [8] 0.025 | [9] -0.115 | [10] -0.052

SCAF4 (UniProt O95104)
inactive: [1] -0.098 | [2] -0.043 | [3] -0.039 | [4] -0.004 | [5] -0.014 | [6] 0.006 | [7] 0.053 | [8] -0.003 | [9] 0.033 | [10] -0.037

SEC23A (UniProt Q15436)
inactive: [1] -0.001 | [2] 0.009 | [3] 0.028 | [4] 0.017 | [5] 0.01 | [6] 0.013 | [7] 0.062 | [8] 0.008 | [9] -0.031 | [10] -0.007

SBNO1 (UniProt A3KN83)
inactive: [1] -0.01 | [2] 0.01 | [3] 0.017 | [4] -0.002 | [5] 0.002 | [6] 0.015 | [7] 0 | [8] -0.008 | [9] -0.006 | [10] 0.003

SELENBP1 isoform 4 (UniProt Q13228)
inactive: [1] 0.006 | [2] 0.024 | [3] -0.008 | [4] 0.023 | [5] 0.017 | [6] -0.016 | [7] -0.017 | [8] -0.013 | [9] 0.01 | [10] 0.005

SAAL1 (UniProt Q96ER3)
inactive: [1] 0 | [2] -0.071 | [3] 0.011 | [4] -0.016 | [5] -0.062 | [6] 0.016 | [7] 0.029 | [8] -0.006 | [9] -0.039 | [10] 0.009

SCLY (UniProt Q96I15)
inactive: [1] 0.004 | [2] 0.014 | [3] -0.007 | [4] 0.027 | [5] -0.003 | [6] -0.022 | [7] 0.025 | [8] -0.007 | [9] -0.005 | [10] -0.002

SEMA7A (UniProt O75326)
inactive: [1] -0.001 | [2] 0.168 | [3] 0.039 | [4] 0.026 | [5] 0.03 | [6] 0.078 | [7] -0.041 | [8] 0.238 | [9] 0.008 | [10] -0.04

SEC24B isoform 3 (UniProt O95487)
inactive: [1] 0.071 | [2] -0.032 | [3] 0.044 | [4] 0.026 | [5] 0.006 | [6] 0.058 | [7] -0.011 | [8] -0.02 | [9] 0.024 | [10] -0.016

SCYL1 (UniProt Q96KG9)
inactive: [1] -0.041 | [2] -0.032 | [3] 0.051 | [4] 0.031 | [5] 0.037 | [6] 0.081 | [7] -0.039 | [8] 0.032 | [9] 0.042 | [10] 0.034

SAMD4B (UniProt Q5PRF9)
inactive: [1] -0.012 | [2] -0.053 | [3] 0.017 | [4] -0.004 | [5] 0.033 | [6] -0.021 | [7] 0.019 | [8] -0.037 | [9] 0.105 | [10] -0.003

SELENOS (UniProt Q9BQE4)
inactive: [1] 0.021 | [2] 0.037 | [3] 0.008 | [4] 0.071 | [5] 0.006 | [6] 0.052 | [7] -0.076 | [8] -0.009 | [9] -0.078 | [10] -0.059

SASS6 (UniProt Q6UVJ0)
inactive: [1] 0.051 | [2] -0.104 | [3] 0.018 | [4] 0.03 | [5] -0.002 | [6] 0.053 | [7] 0.085 | [8] -0.019 | [9] 0.005 | [10] 0.001

SAMSN1 (UniProt Q9NSI8)
inactive: [1] -0.029 | [2] 0.031 | [3] 0.001 | [4] -0.006 | [5] -0.025 | [6] 0.009 | [7] -0.005 | [8] 0.029 | [9] -0.01 | [10] 0.039

SACM1L (UniProt Q9NTJ5)
inactive: [1] 0.015 | [2] -0.109 | [3] 0.026 | [4] -0.01 | [5] -0.012 | [6] 0.041 | [7] -0.177 | [8] 0.025 | [9] -0.166 | [10] 0.011

SEC62 (UniProt Q99442)
inactive: [1] 0.046 | [2] 0.07 | [3] 0.019 | [4] 0.02 | [5] 0.045 | [6] -0.012 | [7] -0.084 | [8] -0.003 | [9] -0.028 | [10] 0.004

SELENOF (UniProt O60613)
inactive: [1] 0.041 | [2] 0.062 | [3] -0.011 | [4] 0.066 | [5] 0.059 | [6] -0.089 | [7] 0.051 | [8] -0.014 | [9] 0.027 | [10] -0.039

SEPTIN11 isoform 2 (UniProt Q9NVA2)
inactive: [1] -0.007 | [2] 0.04 | [3] -0.015 | [4] 0 | [5] 0.007 | [6] -0.018 | [7] -0.012 | [8] 0 | [9] -0.006 | [10] -0.012

Two consecutive entries already listed, quoted:
SELENOF (UniProt O60613)
inactive: [1] 0.041 | [2] 0.062 | [3] -0.011 | [4] 0.066 | [5] 0.059 | [6] -0.089 | [7] 0.051 | [8] -0.014 | [9] 0.027 | [10] -0.039

SEPTIN11 isoform 2 (UniProt Q9NVA2)
inactive: [1] -0.007 | [2] 0.04 | [3] -0.015 | [4] 0 | [5] 0.007 | [6] -0.018 | [7] -0.012 | [8] 0 | [9] -0.006 | [10] -0.012

Additional results follow.

SEPHS1 (UniProt P49903)
inactive: [1] 0.004 | [2] 0.026 | [3] 0.007 | [4] -0.007 | [5] 0.05 | [6] -0.008 | [7] -0.004 | [8] -0.011 | [9] -0.006 | [10] -0.015

SEPTIN7 (UniProt Q16181)
inactive: [1] 0.036 | [2] 0.044 | [3] 0 | [4] -0.008 | [5] -0.013 | [6] -0.018 | [7] 0.02 | [8] -0.013 | [9] -0.004 | [10] 0.013

SEPTIN2 isoform 2 (UniProt Q15019)
inactive: [1] -0.053 | [2] 0.067 | [3] 0 | [4] -0.026 | [5] 0.019 | [6] -0.015 | [7] -0.007 | [8] 0.027 | [9] 0.016 | [10] -0.021

SDHC (UniProt Q99643)
inactive: [1] -0.114 | [2] -0.056 | [3] 0.047 | [4] 0.146 | [5] 0.097 | [6] 0.034 | [7] 0.055 | [8] 0.018 | [9] -0.007 | [10] 0.011

SAMM50 (UniProt Q9Y512)
inactive: [1] 0.004 | [2] -0.021 | [3] 0.015 | [4] -0.015 | [5] -0.011 | [6] 0.016 | [7] -0.066 | [8] 0.007 | [9] -0.05 | [10] 0.007

SEPTIN9 (UniProt Q9UHD8)
inactive: [1] -0.067 | [2] 0.028 | [3] -0.011 | [4] -0.021 | [5] -0.002 | [6] -0.045 | [7] 0.016 | [8] -0.02 | [9] 0.006 | [10] -0.015
